The campaign covered roughly 330,000 compounds. About 7,700 (2.3%) were called active. Inconclusive results, whose numbers are uncertain, are shown with a selection of clear calls. Calls come from the whole dose curve; as a rule, active = well fitted inhibition curve with a large enough effect; inconclusive = small, poorly fitted or top-dose-only effect, or effect the other way; inactive = flat fitted curve, though single readings scatter. A potency beside an inconclusive call is a rough fit, not a confirmed value.
Assay: qHTS screen for small molecules that inhibit ELG1-dependent DNA repair in human embryonic kidney (HEK293T) cells expressing luciferase-tagged ELG1; note: nearly all actives have a fitted effect of over 55% in size
Conditions: HEK293T ELG1-luciferase reporter, luminescence, 16 h, DNA damage induced by 5-fluorouridine; activity change, negative = inhibition: at 46.1 µM (top of the series)
Outline: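 Luminescence from the luciferase reporter, measured 30 min after ONE-Glo reagent at room temperature, was the read-out. Beforehand, 2,000 cells per well were exposed for 16 hr at 37 °C to 5-fluorouridine together with compound or vehicle.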
% is set by controls: 0 for no effect and ±100 for the full control effect; potency is the fitted concentration of half-maximal effect.

Compound	activity change, negative = inhibition	Potency
CCCCCc1c(C)nc(N2CCc3ccccc32)[nH]c1=O	inactive: -14.4%	
C/C(=N\Nc1ccc(Cl)c(C(=O)O)c1)c1ccc2c(c1)OCO2		inconclusive: 14.6 µM [activator, partial curve]
Cc1ccc(NCc2ccc(C)s2)cc1	inactive: 21%	
CN(C)CCNC(=O)/C(=C/c1ccc(-c2cccc(Cl)c2)o1)NC(=O)c1ccccc1	inactive: -6.01%	
COc1ccc(NC(=O)COC(=O)CCOc2ccccc2C)cc1Cl	inactive: 7.1%	
CCOC(=O)c1c(C)[nH]c(C(=O)OC/C(O)=C(\C#N)c2nc3ccccc3[nH]2)c1C		inconclusive: 20.6 µM [inhibitor, single point]
CC(=Nc1ccc(C)c(C)c1)C1=C(O)CSC1=O		inconclusive: 16.4 µM [activator, partial curve]
Cc1ccc(-n2ccnc(SCC(=O)NC3CCCCC3)c2=O)cc1F	inactive: 2.32%	
O=C(CCCn1c(=O)c2sccc2n(Cc2ccc(F)cc2)c1=O)NCc1ccco1		active: 20.6 µM
Cc1ccc(N(CC(=O)NCc2ccccc2)C(=O)CCC(=O)Nc2ccccn2)cc1C	inactive: -10.8%	
CCOc1ccc(C(=O)c2cccs2)cc1		inconclusive: 18.4 µM [activator, partial curve]
COc1ccccc1C1CC(c2ccccc2)Nc2ncnn21 (stereo not given)	inactive: -22.5%	
COC(=O)c1ccc(C2C(Oc3ccccc3)C(=O)N2CCc2ccc(F)cc2)cc1 (stereo not given)	inactive: 14.3%	
O=C(NCc1cccc(C(F)(F)F)c1)N1CCN(S(=O)(=O)c2ccccc2F)CC1	inactive: -15%	
O=C(/C=C/c1cccc(Br)c1)c1ccc2c(c1)OCO2		inconclusive: 18.3 µM [activator, partial curve, poor fit]
CCOc1ccc2nc(NC(=O)c3cnccn3)sc2c1		inconclusive: 1.64 µM [activator, full curve]
O=c1cc(O)c2sc(Nc3cccc(C(F)(F)F)c3)nc2[nH]1	inactive: 14.3%	
CCC(=O)NC(=S)NNC(=O)c1ccc(OC)cc1	inactive: -1.73%	
CCOc1ccc(S(=O)(=O)N(C)c2ccc(OCC(=O)NCc3ccc(C(=O)OC)cc3)cc2)cc1		inconclusive: 32.6 µM [inhibitor, partial curve, poor fit]
O=C(Nc1cc(Sc2nc3ccccc3s2)cc([N+](=O)[O-])c1)c1ccccc1F		inconclusive: 16.4 µM [inhibitor, single point]
CC(=O)N1c2ccc(S(=O)(=O)N3CCC(C(=O)N4CCN(c5cc(Cl)ccc5C)CC4)CC3)cc2CC1C (stereo not given)		inconclusive: 10.3 µM [inhibitor, partial curve, poor fit]
Cc1nn(-c2ccccc2)c(C)c1NC(=O)COC(=O)Cc1ccccc1F	inactive: 27.1%	
CN(C)/C=C/C(=O)/C=C/c1ccc(Cl)cc1		inconclusive: 20.6 µM [activator, partial curve]
O=C(NCCS(=O)(=O)NCCc1ccccc1)c1ccccc1		inconclusive: 25.9 µM [activator, single point]
CN(CC(=O)NCc1ccccn1)S(=O)(=O)c1ccc(Br)cc1	inactive: -5.77%	

Compound	activity change, negative = inhibition	Potency
CCn1cc(CN2CCCC(C(=O)Nc3ccc(-c4nc5ccccc5[nH]4)cc3)C2)c(C)n1 (stereo not given)	inactive: 20.3%	
CCN(CC)S(=O)(=O)c1cccc(NC(=O)COc2ccc(C#N)cc2OC)c1		inconclusive: 18.4 µM [inhibitor, single point]
CN(C)c1ccc(-c2ccc3oc(-c4ccsc4)cc(=O)c3c2)cn1		inconclusive: 4.11 µM [activator, full curve]
COC(=O)N1C(=O)[C@](CC(C)C)(c2ccccc2)N1C(=O)OC		inconclusive: 1.03 µM [inhibitor, full curve, poor fit]
O=C(/C=C/c1ccco1)Nc1ccc(N2CCCC2)cc1		inconclusive: 3.26 µM [activator, partial curve]
COc1ccc(/C=N/Nc2nc3ccccc3o2)cc1OC		inconclusive: 2.06 µM [activator, full curve]
C=CCNc1nc(N)c(C(=O)Nc2cc(C)on2)s1		inconclusive: 18.4 µM [activator, partial curve]
COc1ccc(Cn2c(C)c(C)c(C#N)c2NC(=O)Nc2cccc(C)c2)cc1	inactive: 16.7%	
O=C(Nc1nc2ccc(S(=O)(=O)N3CCCCC3)cc2s1)c1ccncc1		inconclusive: 18.4 µM [inhibitor, single point]
CCCn1nnc(NC(=O)C(C)C)n1	inactive: 2.46%	
CCOc1ccc(C(C)=O)cc1N1C(=O)C2C(C1=O)C1C=CC2C12CC2 (stereo not given)	inactive: 6.09%	
Cc1cc(C(=O)NCC(=O)Nc2ccc(F)c(F)c2)c(C)o1	inactive: 4.79%	
Cc1nn(CCOc2ccccc2)c(=O)n1-c1ccc(F)cc1		inconclusive: 18.4 µM [activator, partial curve]
COc1ccc(CNC(=O)C2CCCN2)cc1OC (stereo not given)		inconclusive: 29.1 µM [inhibitor, single point]
COc1ccc(C)cc1NC(=O)CSc1ccc(-c2ccccn2)nn1	inactive: -11.4%	
CCc1ccc(NC(=O)CSc2nc3ccccc3c(=O)n2CCN2CCOCC2)cc1		active: 23.1 µM
N#CCSc1ccc(-c2nc3ccccc3[nH]2)cn1		inconclusive: 8.2 µM [activator, partial curve]
CN(C)C(=O)CCc1ccc2c3c([nH]c2c1)[C@]1(C)[C@@H](C(=O)N2CCCCC2)C[C@H](CC(=O)NCc2cccc(C(F)(F)F)c2)C(=O)N1CC3		inconclusive: 25.9 µM [inhibitor, single point]
CCOC(=O)Nc1ccc2c(c1)ncn2C1CCCCC1		inconclusive: 25.9 µM [activator, single point]
CCOC(=O)c1cc2ccc3ccccc3c2s1		inconclusive: 20.6 µM [activator, partial curve]
OCc1ccc(O)c2ncccc12		inconclusive: 16.4 µM [inhibitor, partial curve]
O=C(Cc1cccs1)Nc1nc(-c2cccnc2)cs1	inactive: -19.1%	
O=C(NC(=S)Nc1cccc([N+](=O)[O-])c1)C1CCCC1	inactive: 5.3%	
CCOC(=O)NC(=S)Nc1ccc(C(C)(C)C)cc1		inconclusive: 23.1 µM [activator, partial curve]
CCN(Cc1ccncc1)Cc1nc(CC2CC2)no1	inactive: -4.06%	

Compound	activity change, negative = inhibition	Potency
CCOC(=O)c1ccc(-c2c(-c3ccccc3OC)sc3ccc(OC)cc23)cc1F		inconclusive: 29.1 µM [activator, single point]
COc1ccc2c(c1)[nH]c1c(N3CCSCC3)ncnc12		active: 9.2 µM
CC(C)(C)N(Cc1ccccc1)C(=O)COC(=O)c1ccc(N2CCCC2=O)cc1		inconclusive: 0.58 µM [inhibitor, full curve, poor fit]
C=CCn1c(C)cc(C(=O)COC(=O)[C@@H](NC(=O)c2ccccc2Cl)C(C)C)c1C		inconclusive: 9.2 µM [activator, partial curve]
c1ccc2c(c1)nc(N1CCCCC1)c1ccccc12		inconclusive: 16.4 µM [activator, partial curve, poor fit]
Cc1noc(C)c1CSCC(=O)Nc1cc(C(F)(F)F)ccc1N1CCOCC1	inactive: -20.2%	
C/C(=N\NC(=O)c1ccccc1C)c1ccc(NC(=O)c2cccs2)cc1		inconclusive: 16.4 µM [activator, partial curve]
COc1ccc(CCNC(=O)CCCn2c(=O)c3cccn3c3cccnc32)c(OC)c1OC		active: 13 µM
Cc1nn(C)c(C)c1NC(=O)c1ccccc1NC(=O)Nc1ccccc1	inactive: 7.28%	
Cn1c(=O)c(C(=O)CN2CCN(Cc3ccc4c(c3)OCO4)CC2)c(N)n(Cc2ccccc2)c1=O		inconclusive: 16.4 µM [inhibitor, partial curve, poor fit]
CCN(CC)c1ccc(/C=N/N=C(N)N)c(O)c1	inactive: -10%	
CCN(C(=O)c1ccc(S(=O)(=O)N2CCOCC2)cc1)C1CCS(=O)(=O)C1 (stereo not given)	inactive: 13.5%	
CN(C)c1ccc(/C=N/NC(=O)c2ccccc2Cl)cc1		inconclusive: 25.9 µM [activator, single point]
CCc1[nH]nc2c1C(c1ccsc1)C(C#N)=C(N)O2 (stereo not given)	inactive: -1.08%	
CCOc1ccc(Cl)cc1CNCCNCC(C)O (stereo not given)	inactive: -2.31%	
COCC(=O)Nc1ccc(OC)c(Cl)c1		inconclusive: 10.3 µM [activator, partial curve, poor fit]
Cc1nn(CC(=O)N(C)C2CCS(=O)(=O)C2)c(C)c1[N+](=O)[O-] (stereo not given)		inconclusive: 20.6 µM [activator, single point]
Cc1ccc(CN2C(=O)/C(=C3\SC(N4CCOCC4)=NC3=O)c3cc(Br)ccc32)cc1	inactive: 0%	
O=C(c1ccc(F)cc1)N1CCCC(c2nc(-c3cccs3)no2)C1 (stereo not given)		inconclusive: 23.1 µM [inhibitor, single point]
COc1ccc(NS(=O)(=O)c2ccc(Cl)c(NC(=O)c3cccnc3Cl)c2)cc1		inconclusive: 20.6 µM [inhibitor, single point]
O=C(NCc1ccccc1Br)c1cccc2c1C(=O)c1ccc(N3CCOCC3)cc1S2(=O)=O		inconclusive: 14.6 µM [inhibitor, partial curve, poor fit]
Cc1snc(SCC(=O)c2ccc(Cl)cc2)c1C#N		inconclusive: 23.1 µM [activator, partial curve, poor fit]
CC(O)CC(C(=O)NNc1ccccc1)C(=O)NNc1ccccc1 (stereo not given)		inconclusive: 11.6 µM [inhibitor, partial curve, poor fit]
O=C1c2cccc3cc([N+](=O)[O-])cc(c23)C(=O)N1c1ccccc1O	inactive: -3.94%	
CC1CCCCN1c1cc(C#N)c(C#N)cc1[N+](=O)[O-] (stereo not given)	inactive: 2.78%	

Retrieved one by one from the entries so far (five):
Compound	activity change, negative = inhibition	Potency
Cc1snc(SCC(=O)c2ccc(Cl)cc2)c1C#N		inconclusive: 23.1 µM [activator, partial curve, poor fit]
CCN(C(=O)c1ccc(S(=O)(=O)N2CCOCC2)cc1)C1CCS(=O)(=O)C1 (stereo not given)	inactive: 13.5%	
c1ccc2c(c1)nc(N1CCCCC1)c1ccccc12		inconclusive: 16.4 µM [activator, partial curve, poor fit]
O=C(NCc1ccccc1Br)c1cccc2c1C(=O)c1ccc(N3CCOCC3)cc1S2(=O)=O		inconclusive: 14.6 µM [inhibitor, partial curve, poor fit]
CCOc1ccc(Cl)cc1CNCCNCC(C)O (stereo not given)	inactive: -2.31%	
